Usually EC50 stands for the concentration needed to bring the measured effect to its halfway point.

The values below come from PubChem BioAssay AID434947 (Broad Institute, 2010).

The structures appear in SMILES notation. Among all 2,200 compounds or so, about 15 (0.7%) were called active.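 The calls were made as follows: active = fitted half-maximal concentration for loss of luminescence signal no more than a set limit of log units above the top tested concentration; inconclusive = flat fit with 30 to 70% signal loss, or invalid fit; inactive = half-maximal concentration above that set limit.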 This is one part of the list.

The assay can be described thus: inhibitors of ADP-Glo detection reagents, dose response, artefact control for GSK3beta inhibitor project, biochemical, luminescence, cell-free, homogeneous (AID 434947).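 Also: kinase-free counter screen of ADP-Glo detection reagents for GSK3beta hits.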 Particulars: 5 uM ADP. For orientation: ADP-Glo turns the ADP formed in a reaction into a luminescent signal.
Turning to `c1ccc(CCNCC2COc3ccccc3O2)cc1` (centres undefined), the EC50 was inactive: > 30 µM.
Consider `Cc1c(O)ccc2c(-c3ccccc3)cc(=O)oc12`, for which the EC50 was inactive: > 30 µM.
Turning to `CCn1c(SCC(=O)Nc2ccc(Cl)cc2)nnc1C1CC1`, the EC50 was inactive: > 30 µM.
The value for `CC(/C=C/c1ccccc1F)=N\NC(=O)C(C)C` was inactive: > 30 µM; that for `OC1(C#CCN2CCOCC2)CCCCC1` was inactive: > 30 µM.
Regarding `COc1cc2ncnc(Nc3ccc4c(c3)OCO4)c2cc1OC`, the EC50 was inactive: > 30 µM.
The value for `O=[N+]([O-])c1ccc(-n2nnnc2-c2ccccc2)c([N+](=O)[O-])c1` was inactive: > 30 µM; that for `O=C(CSc1ccc2nnc(-c3cccs3)n2n1)N1CCCC1` was inactive: > 30 µM; that for `CC[n+]1c(/C=C/N(C)c2ccccc2)oc2ccccc21` was inactive: > 30 µM.
With `CCn1cc(CN2CCC(n3nccc3NC(=O)CCCc3ccccc3)CC2)cn1`, the EC50 is inactive: > 30 µM.
Consider `COc1ccc2oc3cc(C)[n+]([O-])c(-c4ccc(Br)cc4)c3c2c1`, for which the EC50 is inactive: > 30 µM.
Turning to `CN(C)CCCNc1nc(N)c([N+](=O)[O-])c(NCc2ccccc2)n1`, the EC50 was inactive: > 30 µM.
The value for `C/C(=N\NC(=S)Nc1c(C)cccc1C)c1cc2ccccc2o1` was inactive: > 30 µM.
As to `COc1ccc(-n2nc3c(N)n[nH]c3cc2=O)cc1`, the EC50 is inactive: > 30 µM.
`O=C(Nc1cccnc1)c1sc(Nc2ccccc2)nc1-c1ccccc1`: the EC50 was inactive: > 30 µM.
On to `Fc1cccc(Cl)c1CSc1nnc(-c2ccncc2)o1`, for which the EC50 is inactive: > 30 µM.
`CCOC(=O)c1c(C)[nH]c(C(=O)CSc2nccc(C)n2)c1C`: the EC50 was inactive: > 30 µM.
For the compound `COc1ccc2cc(C(N)=O)/c(=N/NC(=O)c3ccco3)oc2c1`, the EC50 is inactive: > 30 µM.
For `CCOC(=O)c1ccc(NC(=O)CSc2nnc(C3CC3)n2CC)cc1`, the EC50 is inactive: > 30 µM.
`Cc1ccc(NC2=CC(=O)CC(C)(C)C2)cc1F`: the EC50 is inactive: > 30 µM.
Take `Cc1ccccc1-c1nnc(SCc2ccc(F)cc2)o1`: the EC50 is inactive: > 30 µM.
`Oc1ccc(N2CCN(C(=S)NCCc3ccccc3)CC2)cc1`: the EC50 is inactive: > 30 µM.
The value for `O=C1C(=O)N(c2ccccn2)C(c2ccc(Br)cc2)/C1=C(/O)c1ccc(Br)cc1` (centres undefined) was inactive: > 30 µM; that for `Cc1ccc(Nc2nc(N)c([N+](=O)[O-])c(NCc3ccccc3)n2)cc1` was inactive: > 30 µM; that for `CNc1nc(-c2ccccc2)nc(-c2ccccc2)c1C#N` was inactive: > 30 µM.
In the case of `Cc1cc(C)n2nc(SCC(=O)N(CC(C)C)c3c(N)n(CC(C)C)c(=O)[nH]c3=O)nc2n1`, the EC50 was inactive: > 30 µM.
As to `Cc1sc2ncnc(N3CCCCC3C)c2c1C` (centres undefined), the EC50 was inactive: > 30 µM.
For `CSc1ncc(C(=O)Nc2ccccc2C)c(C)n1`, the EC50 was inactive: > 30 µM.
As to `CC(C)CC(CO)N1CCN(C(=O)c2ccc(Cl)c(Cl)c2)CCC1=O` (centres undefined), the EC50 was inactive: > 30 µM.
With `CN(C)c1ccc(-c2nc3ccccc3n2C)cc1`, the EC50 is inactive: > 30 µM.
`O=C(COC(=O)C1CCN(S(=O)(=O)c2ccccc2)CC1)NC(=O)c1ccc(OC(F)F)cc1`: the EC50 is inactive: > 30 µM.
As for `CCN(CC)Cc1c(C(=O)N/N=C/c2ccc(C)o2)nnn1-c1nonc1N`, the EC50 is inactive: > 30 µM.
Under `Cc1ccc(C(=O)c2coc3ccc(OCC(=O)O)cc23)cc1` stands inactive: > 30 µM.
Under `Cc1[nH]c2ccccc2c1Cc1nnc(SCC(N)=O)o1` stands inactive: > 30 µM; under `Oc1ccc(-c2nncn2-c2ccccc2)cc1`, inactive: > 30 µM; under `O=C1NC(=Nc2ccccc2)S/C1=C\c1ccccc1`, inactive: > 30 µM.
Take `CNc1nc(N)nc(-c2cc(Cl)ccc2OC)n1`: the EC50 is inactive: > 30 µM.
The value for `NC(=O)CSc1nnc(COc2ccc3ccccc3c2)o1` was inactive: > 30 µM; that for `CCOC(=O)C(C)Sc1ccc2nnc(-c3ccc(F)cc3)n2n1` (centres undefined) was inactive: > 30 µM.
`O=C1CN(c2nc(-c3cccnc3)nc3sc4c(c23)CCCC4)CCN1`: the EC50 was inactive: > 30 µM.
As for `Cc1nc2[nH]c(=O)c3c(n2n1)NC1=C(C(=O)CC(C)(C)C1)C3c1ccccc1` (centres undefined), the EC50 was inactive: > 30 µM.
Under `Cc1c(C=Nc2ccc(S(=O)(=O)N(C)C)cc2)c(O)[nH]c(=O)c1C#N` stands inactive: > 30 µM; under `Cc1ccc(N2CCN(C(=O)N3CCOCC3)CC2)c(C)c1`, inactive: > 30 µM.
Regarding `CN(C)c1nc(-c2ccccc2)nc(-c2ccc(Cl)cc2)c1C#N`, the EC50 is inactive: > 30 µM.
Under `CC1=C(C#N)C(c2ccc(O)cc2)C2=C(CC(C)(C)CC2=O)N1` (centres undefined) stands inactive: > 30 µM; under `O=c1c(-c2ccc(O)cc2)coc2cc(O)cc(O)c12`, inactive: > 30 µM; under `O=C(Nc1ccc(O)c2c(=O)cc(-c3ccccc3Cl)oc12)c1cccs1`, inactive: > 30 µM.
For `Cc1c(NC(=O)C(C)OC(=O)COc2ccccc2)c(=O)n(-c2ccccc2)n1C` (centres undefined), the EC50 was inactive: > 30 µM.
As for `Cc1cc(CN(C)C(=O)c2ccc(OC3CCN(CCc4ccccc4)CC3)cc2)on1`, the EC50 is inactive: > 30 µM.
Consider `Cc1cc(-c2onc3ccc(Cl)cc23)ccc1O`, for which the EC50 was inactive: > 30 µM.
As to `COCCN(CC(=O)NCc1ccc(OC)cc1)C(=O)CCC(=O)Nc1nccs1`, the EC50 is inactive: > 30 µM.
For `COc1ccc(C(=O)Nc2ccc([N+](=O)[O-])cn2)cc1OC`, the EC50 was inactive: > 30 µM.
Under `COc1cccc(-c2nnc3sc(C4CCCCC4)nn23)c1` stands inactive: > 30 µM; under `O=[N+]([O-])c1cc(/C=N/O)ccc1Oc1cccc(Cl)c1`, inactive: > 30 µM.
Take `C=CCNc1nc(N)c([N+](=O)[O-])c(Nc2ccccc2OC)n1`: the EC50 was inactive: > 30 µM.
For `COCCn1c(SCC(=O)Nc2ccc(Cl)cn2)nnc1-c1ccncc1`, the EC50 is inactive: > 30 µM.
For the compound `O=C(c1cccc(-c2ccccc2)c1)N1CC[C@@H](N2CCC(O)CC2)[C@H](O)C1`, the EC50 is inactive: > 30 µM.
Turning to `Cc1cc(Br)ccc1NC(=O)CN1C(=O)CCC1=O`, the EC50 was inactive: > 30 µM.
In the case of `N#Cc1c(N)nc2c(c1-c1ccc(F)cc1)CCC2`, the EC50 is inactive: > 30 µM.
For the compound `Cc1cc(NC(=O)CCC(=O)N(c2cccnc2)C(C(=O)NC2CCCC2)c2ccccc2F)no1` (centres undefined), the EC50 is inactive: > 30 µM.
Take `CCNc1nc(N)nc(Oc2ccc(OCCOc3ccc(Cl)cc3Cl)nn2)n1`: the EC50 was inactive: > 30 µM.
Under `N#Cc1c2n(c3c(N)ncnc13)CCCCC2` stands inactive: > 30 µM.
Take `OCCNc1nc(-c2cccnc2)nc2ccccc12`: the EC50 was inactive: > 30 µM.
Turning to `CN1CCN(/N=C/c2ccc(-c3ccc([N+](=O)[O-])cc3Cl)o2)CC1`, the EC50 is inactive: > 30 µM.
Consider `N#Cc1c(-c2ccccc2)nc(SCC(=O)Nc2ccc(OC(F)(F)Cl)cc2)[nH]c1=O`, for which the EC50 was inactive: > 30 µM.
With `c1ccc(Nc2nc(NCCN3CCOCC3)nc(Nc3ccccc3)n2)cc1`, the EC50 was inactive: > 30 µM.
As to `O=C(Nc1ccncc1)Nc1ccccn1`, the EC50 was inactive: > 30 µM.
Under `CC(=O)Oc1cccc(N2C(=O)c3ccc(C(=O)Nc4cccnc4)cc3C2=O)c1` stands inactive: > 30 µM; under `NC(=O)c1ncn([C@@H]2O[C@H](CO)[C@@H](O)[C@H]2O)c1O`, inactive: > 30 µM; under `Cn1nc(-c2ccc(Cl)cc2)nc2c(=O)n(C)c(=O)nc1-2`, inactive: > 30 µM.
Take `O=C(O)c1ccccc1Nc1ccc(OC(F)F)cc1`: the EC50 is inactive: > 30 µM.
In the case of `CSc1nc2c(c(=O)[nH]1)C(c1ccccc1)C1=C(CC(C)(C)CC1=O)N2` (centres undefined), the EC50 was inactive: > 30 µM.
Under `O=C(NCCCn1ccnc1)c1ccco1` stands inactive: > 30 µM.
Consider `COC(=O)c1sc(Nc2ccccc2)nc1C`, for which the EC50 is inactive: > 30 µM.
Under `O=C(c1cccs1)c1coc2ccc(O)cc12` stands inactive: > 30 µM; under `CCCCCOc1ccc(/C=N/NC(=O)c2nnn(-c3nonc3N)c2CN2CCCCCC2)cc1`, inactive: > 30 µM; under `Nc1nc(NCCCN2CCOCC2)nc(Nc2ccccc2)c1[N+](=O)[O-]`, inactive: > 30 µM.
Regarding `CC(C)=CCc1c(O)cc(O)c2c1OC(c1ccc(O)cc1)CC2=O` (centres undefined), the EC50 is inactive: > 30 µM.
On to `Cc1[nH][nH]c(=O)c1N=Nc1ccccc1C#N`, for which the EC50 is inactive: > 30 µM.
For `CCN(CC)CCNc1nc(SC)nc2sc3c(c12)CCN(C)C3`, the EC50 is inactive: > 30 µM.
Turning to `Cc1ccc(SCC(=O)N2CC(C)OC(C)C2)cc1` (centres undefined), the EC50 was inactive: > 30 µM.
The value for `N#CCCN1CCCc2cc(N=Nc3ccc(C(F)(F)F)cc3)ccc21` was inactive: > 30 µM; that for `Cc1ccc(S(=O)(=O)/N=C2/NC(=O)/C(=C/c3ccccc3)S2)cc1` was inactive: > 30 µM; that for `COc1ccc(CN(CC(=O)NCc2ccccc2)C(=O)CCC(=O)Nc2nccs2)cc1` was inactive: > 30 µM.
As to `COCCn1c(SCC(=O)Nc2cccc(S(N)(=O)=O)c2)nc2ccccc21`, the EC50 is inactive: > 30 µM.
As for `CN1C(N)=NC(=O)/C1=C/c1ccc(F)cc1`, the EC50 was inactive: > 30 µM.
Under `COc1cccc(C2C3=C(CC(C)(C)CC3=O)Nc3n[nH]c(C)c32)c1` (centres undefined) stands inactive: > 30 µM; under `Cn1c(SCC(=O)Nc2ccc(Cl)cn2)nnc1C1CC1`, inactive: > 30 µM.
Take `Cc1cccc(N2CCN(C(=O)c3csc4ccccc34)CC2C)c1` (centres undefined): the EC50 is inactive: > 30 µM.
As for `O=C(Nc1cccc2c1C(=O)NC2=O)c1cccc(N2C(=O)CCC2=O)c1`, the EC50 is inactive: > 30 µM.
Under `O=C(Nc1ccc2c(c1)OCO2)Nc1ccccn1` stands inactive: > 30 µM; under `Cc1c(Br)c([N+](=O)[O-])nn1CC(=O)Nc1c(C)n(C)n(-c2ccccc2)c1=O`, inactive: > 30 µM; under `COc1ccc(OC)c(N=c2oc3cc(O)ccc3cc2C(N)=O)c1`, inactive: > 30 µM.
For `COc1ccc2nc3c(cc2c1)c(NC(=O)CC(C)C)nn3CC(C)C`, the EC50 is inactive: > 30 µM.
